PubChem BioAssay AID1224826 | NIAID, 2016
Aim: 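Knock-downs that raise or lower Tnf reporter signal after endotoxin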 (primary screen). System: RAW264.7 G9 macrophages from mouse bearing reporters for p65 (GFP) and the Tnf promoter (mCherry). Reagents: siRNA pool against mouse genes, 100 nM. Timing: 16 h of LPS stimulation, after 2 days of siRNA transfection. Conditions: bacterial lipopolysaccharide (Salmonella minnesota R595), 10 ng/ml. Measured: 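Imaged Tnf reporter mCherry in nuclei, minus background, normalised per plate to the median and expressed as robust z-scores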. Reading the numbers: Tnf reporter robust z-score: higher = stronger Tnf promoter reporter signal after LPS; Tnf reporter intensity: higher = stronger Tnf promoter reporter signal. Hit rule: 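Called active when robust z-score is at most -1.3, matching the median of the Tlr4 knock-down control, or over 3; control wells and wells with under 50 cells never active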. Calls: active = Tnf reporter clearly lowered or raised; inactive = no clear change in Tnf reporter.
The deposit covers about 17,000 reagents; shown is a random part of them. In the full data, about 1,110 (6.6%) got an active call. 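Active means lowered or raised reporter signal; replicate intensities are raw and not normalised per plate.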 Reagents against one gene are numbered here. Reagent sequences are not shown.

| gene | pool no. | Tnf reporter robust z-score | fewer than 50 cells in well | Tnf reporter intensity, replicate 1 | Tnf reporter intensity, replicate 2 | outcome |
| --- | --- | --- | --- | --- | --- | --- |
| Pdia3 | 1 | -0.54 | enough cells in well | 205 | 197 | inactive |
| Srgap3 | 1 | 0.52 | enough cells in well | 232 | 192 | inactive |
| Mamdc2 | 1 | 1.85 | enough cells in well | 362 | 192 | inactive |
| Mbd3l2 | 1 | 0.52 | enough cells in well | 232 | 165 | inactive |
| Gstm3 | 1 | -1.65 | enough cells in well | 117 | 67.6 | active |
| Dut | 1 | -0.27 | enough cells in well | 176 | 222 | inactive |
| Or7g17 | 1 | 1.72 | enough cells in well | 145 | 199 | inactive |
| Ssna1 | 1 | – | fewer than 50 cells per well; well left out of calls | 218 | 59.9 | inactive |
| Tcof1 | 1 | 0.27 | enough cells in well | 251 | 148 | inactive |
| Ttyh1 | 1 | -1 | enough cells in well | 84.7 | 54.3 | inactive |
| Cntnap1 | 1 | -0.15 | enough cells in well | 208 | 222 | inactive |
| Hrh1 | 1 | -0.08 | enough cells in well | 169 | 359 | inactive |
| 5330416C01Rik | 1 | -1.47 | enough cells in well | 101 | 63.7 | active |
| Cimap1a | 1 | -0.03 | enough cells in well | 201 | 136 | inactive |
| Rimoc1 | 1 | -0.27 | enough cells in well | 150 | 154 | inactive |
| Kif13a | 1 | -0.42 | enough cells in well | 187 | 143 | inactive |
| Or6c1b | 1 | – | fewer than 50 cells per well; well left out of calls | 126 | 107 | inactive |
| Or8k30 | 1 | -1.69 | enough cells in well | 77.9 | 66.5 | active |
| Thap2 | 1 | 1.42 | enough cells in well | 289 | 256 | inactive |
| Dhx9 | 1 | 0.28 | enough cells in well | 208 | 124 | inactive |
| Poln | 1 | 0.81 | enough cells in well | 170 | 141 | inactive |
| Zfp51 | 1 | 2.37 | enough cells in well | 223 | 226 | inactive |
| Tslp | 1 | -0.57 | enough cells in well | 86.4 | 80 | inactive |

Entries listed so far whose gene name begins with P or p:
| gene | pool no. | Tnf reporter robust z-score | fewer than 50 cells in well | Tnf reporter intensity, replicate 1 | Tnf reporter intensity, replicate 2 | outcome |
| --- | --- | --- | --- | --- | --- | --- |
| Pdia3 | 1 | -0.54 | enough cells in well | 205 | 197 | inactive |
| Poln | 1 | 0.81 | enough cells in well | 170 | 141 | inactive |

Continued.
| gene | pool no. | Tnf reporter robust z-score | fewer than 50 cells in well | Tnf reporter intensity, replicate 1 | Tnf reporter intensity, replicate 2 | outcome |
| --- | --- | --- | --- | --- | --- | --- |
| Ralyl | 1 | 1.72 | enough cells in well | 397 | 126 | inactive |
| Nr2f2 | 1 | -0.07 | enough cells in well | 243 | 61.4 | inactive |
| Nr2f2 | 2 | -1.12 | enough cells in well | 150 | 114 | inactive |
| Sir2l1 | 1 | -0.19 | enough cells in well | 120 | 127 | inactive |
| Plbd2 | 1 | -1.23 | enough cells in well | 169 | 36.4 | inactive |
| Fuca1 | 1 | 0.19 | enough cells in well | 313 | 214 | inactive |
| Sox4 | 1 | 0.22 | enough cells in well | 290 | 240 | inactive |
| Hs3st3a1 | 1 | -1.33 | enough cells in well | 150 | 81.3 | active |
| Ilf2 | 1 | 1 | enough cells in well | 326 | 196 | inactive |
| Gprc6a | 1 | 0.34 | enough cells in well | 245 | 318 | inactive |
| Tent4a | 1 | 0.17 | enough cells in well | 269 | 195 | inactive |
| Chgb | 1 | 0.16 | enough cells in well | 241 | 237 | inactive |
| Ccdc47 | 1 | -0.52 | enough cells in well | 207 | 67.4 | inactive |
| Igfbpl1 | 1 | -0.55 | enough cells in well | 164 | 84.7 | inactive |
| Zfp119a | 1 | – | fewer than 50 cells per well; well left out of calls | 74.7 | 36.8 | inactive |
| Prl7c1 | 1 | 0.21 | enough cells in well | 155 | 123 | inactive |
| Shkbp1 | 1 | 0.49 | enough cells in well | 81.2 | 118 | inactive |
